Library screening results

Amino acid sequences for entries named in this document (tags omitted).
UniProt E9BF75, entry or part of it: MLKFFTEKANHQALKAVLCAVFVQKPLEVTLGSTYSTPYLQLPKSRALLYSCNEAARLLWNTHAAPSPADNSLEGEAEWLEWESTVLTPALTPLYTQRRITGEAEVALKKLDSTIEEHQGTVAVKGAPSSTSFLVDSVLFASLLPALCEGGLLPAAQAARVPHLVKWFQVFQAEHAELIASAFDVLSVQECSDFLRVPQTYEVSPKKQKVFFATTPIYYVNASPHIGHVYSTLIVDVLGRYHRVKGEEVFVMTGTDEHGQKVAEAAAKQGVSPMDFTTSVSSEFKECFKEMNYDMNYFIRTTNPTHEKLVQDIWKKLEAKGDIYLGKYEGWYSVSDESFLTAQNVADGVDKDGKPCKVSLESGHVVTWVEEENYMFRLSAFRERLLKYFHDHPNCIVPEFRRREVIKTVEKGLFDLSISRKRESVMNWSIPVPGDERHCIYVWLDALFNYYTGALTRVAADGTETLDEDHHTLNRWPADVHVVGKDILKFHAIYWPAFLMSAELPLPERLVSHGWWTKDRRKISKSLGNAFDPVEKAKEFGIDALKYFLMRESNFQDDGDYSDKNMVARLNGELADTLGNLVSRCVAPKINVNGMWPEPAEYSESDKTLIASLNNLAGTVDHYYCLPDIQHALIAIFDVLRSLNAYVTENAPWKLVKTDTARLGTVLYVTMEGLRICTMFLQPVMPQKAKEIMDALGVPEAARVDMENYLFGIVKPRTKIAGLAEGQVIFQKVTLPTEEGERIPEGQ

All values are in %.
The record does not define 0% and 100%; most values in the screen are far below 50% and negative numbers occur (in some assays of this library far below -100).
The compounds are a random part of those screened.
A dash means the value is not listed here; it may have been measured.

A: 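Assay on Mycobacterium tuberculosis, filed only as a heat shock assay from Cornell; the read-out is not stated. The concentration is filed as 10 mM, unlikely as a test dose, so the dose is not known. Higher reads as stronger inhibition (inferred: compounds with an IC50 in retests scored well above the rest). About 69,000 compounds were tested under these conditions; 1.4% (about 930) showed 50% or more at least once.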
B: 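Methionyl-tRNA synthetase (putative), Leishmania donovani (UniProt E9BF75). Primary screen of methionyl-tRNA synthetase; the read-out is not stated. The test concentration is not given. Values are per cent inhibition. Size under these conditions: about 68,000 compounds, about 24 of them at 50% or above in at least one test.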
C: 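Whole-cell assay for inhibitors of Mycobacterium tuberculosis growth, labelled Cornell in the record; the read-out is not stated. The concentration is filed as 10 mM, unlikely as a test dose, so the dose is not known. The record gives no direction; compounds strong in two other growth screens of this library score well above the rest, so higher reads as stronger inhibition. About 53,000 compounds were tested under these conditions; 1.7% (about 900) showed 50% or more at least once.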

Compound | A | B | C
CS(=O)(=O)N1CCC2(CC1)CC(CC(=O)NC1CC1)c1ccccc12 (stereo not given) | 3.341 | 12.45 | 9.35
CS(=O)(=O)N1CCC2(CC1)CC(Oc1ccccn1)CO2.O=C(O)C(F)(F)F (stereo not given) | 14.37 | - | -7.248
Cc1nn(CC(=O)N2CCCC2Cn2cccn2)c(C)c1Cl (stereo not given) | -16.57 | 12.38 | 2.116
CC(=O)NC1CCN(C(=O)Nc2ccc(SC(F)F)cc2)CC1 | -33.29 | 19.73 | 11.15
CCN1CCN(C[C@@H]2CN(c3ncc(Cl)cc3Cl)C[C@@H]2CO)CC1 | -1.607 | 8.71 | 22.39
CCOCC1CN(c2ccc(C)nn2)Cc2cnn(CC)c21 (stereo not given) | - | 14.75 | -
Cc1cnn(C2CN(CC(=O)NCC3(c4ccccc4)CCC3)C2)c1 | 3.905 | -0.4819 | 11.85
COc1ccc(C(=O)N2CCC(C3CCN(c4ncccn4)CC3)C2)o1 (stereo not given) | -33.88 | 18.75 | 24.93
O=C(O)C(F)(F)F.O=C(O)C(F)(F)F.[H][C@@]12C[C@H](C(=O)Nc3cccnc3)[C@@]([H])(CN(CCC(C)C)C1)O2 | 1.576 | - | 18.07
CCS(=O)(=O)N1CCC2(CC1)CCn1c(-c3cnn(C)c3)cnc12.O=C(O)C(F)(F)F | -5.792 | - | 13.67
[H][C@@]12C[C@H](C(=O)N3CCCC3)[C@@]([H])(CN(C(=O)Nc3ccc(F)cc3)C1)O2 | 26.75 | - | 2.586
O=C(O)C(F)(F)F.O=C(O)C(F)(F)F.[H][C@@]12CCCO[C@]1([H])[C@H](N1CCCC1)CN(Cc1ccco1)C2 | -27.84 | - | -1.356
CN1CCN(CCOc2ccc(NC(=O)c3cnc[nH]3)cc2)CC1 | -8.906 | 8.101 | -9.927
CSc1ccc(CN(CCO)C(=O)CCOc2ccccc2)cc1 | -5.003 | 10.36 | 5.136
COC(=O)CN(CC1CCOC1)C1CC1 (stereo not given) | 20.4 | 11.59 | -30.5
Cc1nn(C)cc1Cn1c(=O)cnc2ccccc21 | 2.054 | 16.82 | -50.24
CCC1CN(CCNC(C)=O)CCN1CCOC (stereo not given) | 2.926 | 7.843 | 3.204
C=C(C)CNC(=O)C1CCCN(C2CCN(C(C)C)CC2)C1 (stereo not given) | -16.31 | 7.467 | -
CNC(=O)C1(c2cnccn2)CCCN1C(=O)c1ccccc1F (stereo not given) | -9.141 | 15.1 | -51.94
CC(=O)c1cn(CCC(=O)N[C@@H](CC(C)C)C(=O)O)c2ccccc12 | 15.31 | 13.7 | 21.64
CC1CCC(NS(=O)(=O)CC(=O)Nc2ccc(N3CCCC3)cn2)CC1 (stereo not given) | -9.222 | 8.871 | -5.738
O=C(O)C(F)(F)F.[H][C@@]12CN(Cc3ccc4c(c3)OCO4)C[C@H](C(=O)NC3CC3)[C@]1([H])CCO2 | -13.86 | - | 23.14
CC(C)(C(=O)NCC(=O)NCc1ccccc1)c1ccccc1F | 3.942 | 7.692 | 9.379
Cn1cnc2c1C(COCC1CCOCC1)CN(C1CCOCC1)C2.O=C(O)C(F)(F)F.O=C(O)C(F)(F)F (stereo not given) | 12.77 | - | -
Cc1nnc(N2CCCC2)c(C(N)=O)c1C | 1.266 | 15.85 | -33.88
O=C(NCc1ccc(F)cc1)NCC1(N2CCOCC2)CCSC1 (stereo not given) | -5.597 | 0 | -27.5
CCc1nc(C2CCCN2CCc2ccccn2)no1 (stereo not given) | 107.9 | 11.04 | 5.9
O=C(c1cscn1)N1CCC2(CN(Cc3ccsc3)C2)C1 | - | 5 | -
CCNC(=O)C1CCCN(c2ccc(C#N)cc2C(F)(F)F)C1 (stereo not given) | -6.693 | 11.78 | -
COc1ccccc1-c1csc(-c2cccc(C(=O)O)c2)n1 | 9.459 | -1.031 | -
COc1ccc(OC2CCN(C(=O)C(C)Cn3cccn3)CC2)cc1 (stereo not given) | -7.467 | 12.2 | 3.959
COC(=O)c1oc(CNC(C)(C)c2ccc3c(c2)OCCO3)cc1C | 2.256 | 9.763 | 19.13
CC1CN(c2ncnc3sccc23)CCN1c1nccs1 (stereo not given) | 16.56 | 4.444 | 26.17
Cc1ccc(CN(C(=O)NCc2nnc3n2CCCCC3)C2CC2)o1 | -8.504 | 6.522 | -18.83
O=C(O)C(F)(F)F.O=C(O)C(F)(F)F.[H][C@@]12CCCO[C@]1([H])[C@H](NC(=O)c1ccncc1)CN(c1ncccn1)C2 | -29.4 | - | 25.25
NC(=O)c1cc2c(nc1-c1ccc3c(c1)OCCO3)CCC2 | 10.22 | 15.08 | -14.83
CC(C)[C@@H]1CN(c2ncc(F)cn2)C[C@H]1NS(=O)(=O)N(C)C | -2.54 | 2.181 | -8.446
Cc1ccc(-c2ccc(C(=O)NCCS(N)(=O)=O)c(F)c2)cc1 | -1.825 | 22.36 | -
CN(C)C(=O)c1ccc(OC2CCOCC2)cc1 | 5.043 | 7.379 | 8.188
Cn1cc(C2CCCN2C(=O)CCc2cnn(-c3ccccc3)c2)cn1 (stereo not given) | -3.88 | 10.06 | -
Cc1ccc(C2CN(CCCC#N)CCO2)c(C)c1 (stereo not given) | 1.909 | 15.09 | 36.55
CC(C(=O)N1CCOCC1)S(=O)(=O)Cc1nc(C(C)(C)C)no1 (stereo not given) | 18.92 | 6.407 | -6.121
COCCn1cc(C(=O)N2CCCC2c2cccc(F)c2)ccc1=O (stereo not given) | -4.621 | 9.058 | -
Cc1nc(CNC(C)c2ccc(S(=O)(=O)N(C)C)cc2)no1 (stereo not given) | -3.083 | 18.21 | 0.6392

The first 3 entries again:

With CS(=O)(=O)N1CCC2(CC1)CC(CC(=O)NC1CC1)c1ccccc12 (stereo not given) the screen gave A: 3.341%; B: 12.45%; C: 9.35%.
With CS(=O)(=O)N1CCC2(CC1)CC(Oc1ccccn1)CO2.O=C(O)C(F)(F)F (stereo not given) the screen gave A: 14.37%; C: -7.248%.
With Cc1nn(CC(=O)N2CCCC2Cn2cccn2)c(C)c1Cl (stereo not given) the screen gave A: -16.57%; B: 12.38%; C: 2.116%.

Measurements from “University of Dundee, Small-Polar-MMV Screening Library” (2021), ChEMBL document CHEMBL3988442.